Results are given in words; binding and its absence hold for the method and conditions named. Binding seen in cells or lysates may run through a third protein. A result given as binding can be weak or reduced; the word gives no strength.
Legend:
[1] = molecular target: FLAG-Fbxl7 (Drosophila F-box protein Fbxl7, full length) (Drosophila) (UniProt Q9VF10); experiment: co-IP; S2R+ cells co-transfected; 50 µM MG132 4 hr before harvest; anti-FLAG M2 affinity gel overnight at 4°C; FLAG-protein complexes eluted off beads with 400 ng/µl 3x FLAG peptide for 30 min at 4°C (SkpA, Cul1 and Cindr co-IPs); western blot
[2] = molecular target: FLAG-Fbxl7 (Drosophila F-box protein Fbxl7, full length) (Drosophila) (UniProt Q9VF10); experiment: co-IP; S2R+ cells co-transfected; 50 µM MG132 4 hr before harvest; lysis buffer 20 mM HEPES pH 7.5, 5 mM KCl, 1 mM MgCl2, 0.1% NP-40; lysate incubated with anti-FLAG M2 affinity gel overnight at 4°C; beads washed twice and boiled in SDS sample buffer; western blot

Chains of the proteins cited; added tags and fusions are not shown. Lines headed by an entry give the natural chain unless they say otherwise; changes in a name come on top.
UniProt Q9VF10: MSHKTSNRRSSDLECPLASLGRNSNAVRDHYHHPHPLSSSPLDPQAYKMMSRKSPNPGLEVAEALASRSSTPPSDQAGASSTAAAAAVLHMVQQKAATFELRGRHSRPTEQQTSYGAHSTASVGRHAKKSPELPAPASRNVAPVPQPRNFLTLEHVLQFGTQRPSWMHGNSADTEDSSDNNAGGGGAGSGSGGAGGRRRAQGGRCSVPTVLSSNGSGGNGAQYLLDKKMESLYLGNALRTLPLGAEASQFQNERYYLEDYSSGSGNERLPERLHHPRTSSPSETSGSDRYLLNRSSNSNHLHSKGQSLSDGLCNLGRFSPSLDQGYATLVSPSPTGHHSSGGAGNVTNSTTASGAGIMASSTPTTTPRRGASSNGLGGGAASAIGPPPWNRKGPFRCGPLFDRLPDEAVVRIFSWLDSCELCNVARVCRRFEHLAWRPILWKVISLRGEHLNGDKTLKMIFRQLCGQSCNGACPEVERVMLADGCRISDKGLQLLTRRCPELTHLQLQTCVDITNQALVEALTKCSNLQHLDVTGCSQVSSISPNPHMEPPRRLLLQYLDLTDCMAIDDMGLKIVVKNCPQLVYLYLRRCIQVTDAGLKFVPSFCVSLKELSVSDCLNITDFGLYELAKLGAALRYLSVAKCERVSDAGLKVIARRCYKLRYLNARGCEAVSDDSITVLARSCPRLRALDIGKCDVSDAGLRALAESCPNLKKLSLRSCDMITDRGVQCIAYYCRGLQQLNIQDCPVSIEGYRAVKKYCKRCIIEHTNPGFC
UniProt Q24311: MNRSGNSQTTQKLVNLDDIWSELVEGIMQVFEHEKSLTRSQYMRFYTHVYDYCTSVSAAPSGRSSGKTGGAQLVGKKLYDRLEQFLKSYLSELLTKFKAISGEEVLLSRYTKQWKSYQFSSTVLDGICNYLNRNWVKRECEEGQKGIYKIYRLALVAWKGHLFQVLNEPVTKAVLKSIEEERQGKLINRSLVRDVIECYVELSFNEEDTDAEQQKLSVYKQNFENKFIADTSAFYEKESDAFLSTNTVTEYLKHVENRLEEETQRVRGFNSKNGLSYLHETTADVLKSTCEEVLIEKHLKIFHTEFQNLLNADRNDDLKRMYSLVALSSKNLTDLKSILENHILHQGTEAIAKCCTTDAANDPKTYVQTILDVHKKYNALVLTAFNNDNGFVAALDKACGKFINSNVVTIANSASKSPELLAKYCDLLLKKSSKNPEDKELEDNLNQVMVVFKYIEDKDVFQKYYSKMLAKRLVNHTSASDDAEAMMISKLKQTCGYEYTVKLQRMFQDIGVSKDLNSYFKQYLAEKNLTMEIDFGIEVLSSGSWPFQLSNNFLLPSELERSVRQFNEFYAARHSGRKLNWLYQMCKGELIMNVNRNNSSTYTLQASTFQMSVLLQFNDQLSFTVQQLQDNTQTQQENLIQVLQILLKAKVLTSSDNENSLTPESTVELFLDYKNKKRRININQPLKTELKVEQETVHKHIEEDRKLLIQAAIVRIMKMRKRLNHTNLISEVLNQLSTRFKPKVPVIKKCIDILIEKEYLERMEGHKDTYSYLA
UniProt O76324: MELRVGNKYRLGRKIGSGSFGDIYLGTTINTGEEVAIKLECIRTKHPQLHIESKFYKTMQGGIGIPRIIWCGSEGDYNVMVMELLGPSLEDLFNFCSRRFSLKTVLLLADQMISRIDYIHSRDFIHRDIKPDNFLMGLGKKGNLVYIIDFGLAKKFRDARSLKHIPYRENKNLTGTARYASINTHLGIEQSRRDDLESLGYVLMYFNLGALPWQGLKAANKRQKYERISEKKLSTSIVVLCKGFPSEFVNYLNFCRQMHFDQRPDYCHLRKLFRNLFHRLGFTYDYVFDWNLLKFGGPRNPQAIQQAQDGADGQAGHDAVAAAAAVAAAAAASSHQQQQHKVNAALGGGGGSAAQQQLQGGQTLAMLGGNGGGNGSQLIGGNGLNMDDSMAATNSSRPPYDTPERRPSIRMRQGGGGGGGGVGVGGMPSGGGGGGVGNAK
UniProt O77430: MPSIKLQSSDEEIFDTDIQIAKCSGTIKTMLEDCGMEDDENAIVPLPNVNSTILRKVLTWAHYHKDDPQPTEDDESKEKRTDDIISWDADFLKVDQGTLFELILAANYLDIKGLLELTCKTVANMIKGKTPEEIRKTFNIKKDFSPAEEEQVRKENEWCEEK

binding [1]	binding [2]	Substance
binds		Cul1-HA (from UniProt Q24311 1-774)
	binds	Dco-V5 (Discs overgrown, casein kinase I) (from UniProt O76324 1-440) (enzyme)
binds		SkpA-HA (from UniProt O77430 1-162)

— publication PMC4144329
